Results: article PMC8605363
Results are given in words; binding and its absence hold for the method and conditions named. Binding seen in cells or lysates may run through a third protein. Some binding calls cover weakened binding; strength is not graded here.

Molecular target: T1, Wilms' tumor 1-associating protein (human (endogenous in HUVEC)) (UniProt Q15007)
T1 sequence: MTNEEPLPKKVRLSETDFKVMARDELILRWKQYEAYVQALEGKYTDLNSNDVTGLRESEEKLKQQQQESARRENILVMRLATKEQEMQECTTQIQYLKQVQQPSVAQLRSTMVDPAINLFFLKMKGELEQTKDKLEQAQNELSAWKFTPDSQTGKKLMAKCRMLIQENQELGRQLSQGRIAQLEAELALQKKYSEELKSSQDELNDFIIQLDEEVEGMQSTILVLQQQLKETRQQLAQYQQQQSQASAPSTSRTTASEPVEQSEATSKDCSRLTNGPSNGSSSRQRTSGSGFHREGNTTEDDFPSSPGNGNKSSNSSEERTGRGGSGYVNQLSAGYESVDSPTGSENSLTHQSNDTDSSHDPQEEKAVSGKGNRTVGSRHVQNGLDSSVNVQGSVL
Experiment: co-IP; immunoprecipitation and immunoblotting of CBLL1 and WTAP, in both directions (Fig. S5B); cells and conditions not told in the text shown

B1: CBLL1 (protein, UniProt Q75N03 1-491)
chain: MDHTDNELQGTNSSGSLGGLDVRRRIPIKLISKQANKAKPAPRTQRTINRMPAKAPPGDEEGFDYNEEERYDCKGGELFANQRRFPGHLFWDFQINILGEKDDTPVHFCDKCGLPIKIYGRMIPCKHVFCYDCAILHEKKGDKMCPGCSDPVQRIEQCTRGSLFMCSIVQGCKRTYLSQRDLQAHINHRHMRAGKPVTRASLENVHPPIAPPPTEIPERFIMPPDKHHMSHIPPKQHIMMPPPPLQHVPHEHYNQPHEDIRAPPAELSMAPPPPRSVSQETFRISTRKHSNLITVPIQDDSNSGAREPPPPAPAPAHHHPEYQGQPVVSHPHHIMPPQQHYAPPPPPPPPISHPMPHPPQAAGTPHLVYSQAPPPPMTSAPPPITPPPGHIIAQMPPYMNHPPPGPPPPQHGGPPVTAPPPHHYNPNSLPQFTEDQGTLSPPFTQPGGMSPGIWPAPRGPPPPPRLQGPPSQTPLPGPHHPDQTRYRPYYQ
binding: binds
